Data source: PubChem BioAssay AID1224830 (NIAID, 2016)
Screen: 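Host factors that control LPS-induced TNF expression in human macrophages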 (primary screen). Cell system: human THP-1 monocytic leukaemia cells, TNF dual-luciferase reporter clone, PMA-differentiated to macrophage-like cells. Reagent: siRNA pool against human genes, 50 nM. Timing: LPS for 4 h, given about 3 days after siRNA transfection. Treatment: bacterial LPS (TLR4 ligand), 10 ng/ml. Measured: 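TNF firefly reporter luminescence divided by renilla, normalised to the plate median, then turned into a robust z-score for each replicate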. Direction: TNF reporter robust z-score: higher = stronger TNF reporter response to LPS. Active means: 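a well is active when its z-score exceeds 2.8 or falls below -1.5; control wells carry no call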.
The whole screen tested about 18,000 reagents; this is a part drawn at random. Of all reagents, about 2,900 (16%) were called active. 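Calls are made per well; low scores hint the gene aids the LPS response, high scores that it dampens it.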 Unmarked entries are inactive. Repeated entries: four replicate wells of each siRNA pool.

TNF reporter robust z-score | gene | PubChem SID
-1.11 | SDC3 | SID315453470
-0.68 | SDC3 | SID315453470
0.48 | SDC3 | SID315453470
-0.21 | SDC3 | SID315453470
0.34 | AZIN1 | SID315456791
-0.31 | AZIN1 | SID315456791
0.28 | AZIN1 | SID315456791
1.45 | AZIN1 | SID315456791
-1.76 (active) | RECQL4 | SID315453257
-1.25 | RECQL4 | SID315453257
-1.35 | RECQL4 | SID315453257
-1.36 | RECQL4 | SID315453257
1.52 | FASTKD1 | SID315459375
1.39 | FASTKD1 | SID315459375
1.82 | FASTKD1 | SID315459375
0.23 | FASTKD1 | SID315459375
-0.4 | CSNK1G2 | SID315448135
0.39 | CSNK1G2 | SID315448135
0.07 | CSNK1G2 | SID315448135
0.1 | CSNK1G2 | SID315448135
3.7 (active) | MSMO1 | SID315451297
1.36 | MSMO1 | SID315451297
2.5 | MSMO1 | SID315451297
2.15 | MSMO1 | SID315451297
-2.03 (active) | SLC17A8 | SID315463397
-0.86 | SLC17A8 | SID315463397
-0.78 | SLC17A8 | SID315463397
-0.82 | SLC17A8 | SID315463397
0.87 | TTC36 | SID315462200
-0.67 | TTC36 | SID315462200
1.77 | TTC36 | SID315462200
1.34 | TTC36 | SID315462200
-0.74 | SDCBP2 | SID315455925
0.29 | SDCBP2 | SID315455925
-0.14 | SDCBP2 | SID315455925
0.31 | SDCBP2 | SID315455925
-1.23 | AK1 | SID315447255
1.11 | AK1 | SID315447255
0.55 | AK1 | SID315447255
1.47 | AK1 | SID315447255
-0.96 | LOC401052 (retired record) | SID315464768
0.11 | LOC401052 (retired record) | SID315464768
0.04 | LOC401052 (retired record) | SID315464768
0.1 | LOC401052 (retired record) | SID315464768
-0.57 | GIPR | SID315448897
0.25 | GIPR | SID315448897
-0.37 | GIPR | SID315448897
-0.31 | GIPR | SID315448897

No new results follow: 5 of the entries above.
TNF reporter robust z-score | gene | PubChem SID
-1.11 | SDC3 | SID315453470
-0.68 | SDC3 | SID315453470
0.48 | SDC3 | SID315453470
-0.21 | SDC3 | SID315453470
0.34 | AZIN1 | SID315456791
